Test results published in PubChem BioAssay AID328 (DTP/NCI, 2004).
The list does not hold the whole screen: it gathers tests that were run many times, whatever their T/C, doses with no T/C, and many T/C values between a quarter and a half above the control. Further doses and runs are listed elsewhere. T/C: endpoint of the treated group in % of that of the vehicle group. Some entries give survivors of the animals treated and no T/C: the source holds a T/C of zero for them, seemingly a mark for toxic or unscored doses. Some survivor counts are full or nearly so, which does not show that the dose was tolerated: the source hardly ever lists a survival T/C far under the control, and the zero likely stands for such cases as well. Survivors were counted at the toxicity check, usually on the fifth day, unless a day is given; later deaths do not show. Schedule codes are those of the source, taken here to give the interval after Q, in days (D) or hours (H), and the number of doses after X. Some doses were run more than once; the results are listed from low to high. Where survival is the endpoint, this PubChem deposit counts one and a half times the control or more as active, and values a quarter to a half above the control carry no call in these data; other NCI protocols may use other cut-offs.

Tested on: BDF1 mice, P388 leukemia ip, median survival T/C
Assay: NCI In Vivo Anticancer Drug Screen. Data for tumor model P388 Leukemia (intraperitoneal) in B6D2F1 (BDF1) mice
Conditions: T/C endpoint: median survival time, higher T/C = longer survival
Outline: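 Each value expresses how treatment altered survival: treated-mouse outcome over vehicle-mouse outcome, both groups bearing the transplanted tumour.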

[1] = dose: 50.0 mg/kg/injection, schedule: Q01DX009 (ip), vehicle: Klucel (hydroxypropylcellulose) (HPC)
[2] = dose: 200.0 mg/kg/injection, schedule: Q01DX009 (ip), vehicle: saline
[3] = dose: 50.0 mg/kg/injection, schedule: Q01DX009 (ip), vehicle: saline with Tween-80
[4] = dose: 100.0 mg/kg/injection, schedule: Q01DX009 (ip), vehicle: saline with Tween-80
[5] = dose: 200.0 mg/kg/injection, schedule: Q01DX009 (ip), vehicle: saline with Tween-80
[6] = dose: 200.0 mg/kg/injection, schedule: Q04DX003 (ip), vehicle: saline
[7] = dose: 400.0 mg/kg/injection, schedule: Q04DX003 (ip), vehicle: saline

SMILES: CCOC(=O)CNC(=O)Sc1ccc(C(C)(C)C)cc1
- T/C [1]: 128 % of control
- T/C (dose: 100.0 mg/kg/injection, schedule: Q01DX009 (ip), vehicle: Klucel (hydroxypropylcellulose) (HPC)): 136 % of control

SMILES: NNC(=O)[C@H]1CC[C@H]1C(=O)NN
- T/C (dose: 50.0 mg/kg/injection, schedule: Q01DX009 (ip), vehicle: saline): 130 % of control
- survivor count (dose: 133.0 mg/kg/injection, schedule: Q01DX009 (ip), vehicle: saline): 6 of 6
- survivor count [2]: 4 of 6 and 6 of 6
- survivor count (dose: 300.0 mg/kg/injection, schedule: Q01DX009 (ip), vehicle: saline): 5 of 6

SMILES: BrC1c2cccc3cccc(c23)C1Br (stereo unspecified)
- T/C (dose: 25.0 mg/kg/injection, schedule: Q01DX009 (ip), vehicle: saline with Tween-80): 144 % of control
- T/C [3]: 144 and 147 % of control
- T/C [4]: 141 % of control
- survivor count [5]: 6 of 6

SMILES: CCC1NC(C)(C)CC1=C(C)C (stereo unspecified)
- survivor count (dose: 6.25 mg/kg/injection, schedule: Q01DX009 (ip), vehicle: saline): 6 of 6
- survivor count (dose: 12.5 mg/kg/injection, schedule: Q01DX009 (ip), vehicle: saline): 6 of 6
- survivor count (dose: 25.0 mg/kg/injection, schedule: Q01DX009 (ip), vehicle: saline): 6 of 6

SMILES: CCCCCCCCCCCC1CCCC(C)N1 (stereo unspecified)
- survivor count (dose: 100.0 mg/kg/injection, schedule: Q04DX003 (ip), vehicle: saline): 6 of 6
- survivor count [6]: 6 of 6

SMILES: NC(N)=NCCCCCC(=O)Oc1ccc([N+](=O)[O-])cc1
- survivor count [7]: 2 of 6

SMILES: CC1=CP(=O)(O)CC1
- survivor count [2]: 1 of 6

SMILES: CCN(CC)CCCC(C)Nc1c2ccccc2nc2c(Cl)cccc12 (stereo unspecified)
- survivor count (dose: 100.0 mg/kg/injection, schedule: Q01DX009 (ip), vehicle: saline sonified): 0 of 6

SMILES: CCCCCCCCNC12CC3CC(CC(C3)C1)C2
- survivor count (dose: 25.0 mg/kg/injection, schedule: Q04DX003 (ip), vehicle: saline): 6 of 6
- survivor count [6]: 0 of 6
- survivor count [7]: 0 of 6

SMILES: Nc1nc(N)c2nc(Sc3ccc(Cl)cc3)c(-c3ccccc3)nc2n1
- survivor count (dose: 200.0 mg/kg/injection, schedule: Q04DX003 (ip), vehicle: saline with Tween-80): 6 of 6

SMILES: CC(=O)Nc1ccc2c([N+](=O)[O-])cccc2c1-c1c(NC(C)=O)ccc2c([N+](=O)[O-])cccc12
- T/C [1]: 135 % of control
- T/C (dose: 200.0 mg/kg/injection, schedule: Q01DX009 (ip), vehicle: Klucel (hydroxypropylcellulose) (HPC)): 125 % of control

SMILES: CC(=O)OC1CC2(O)C(CCC3(C)C(c4ccc(=O)oc4)CCC32O)C2(C)C1=CC(O)C1OC12 (stereo unspecified)
- survivor count (dose: 1.0 mg/kg/injection, schedule: Q01DX010 (ip), vehicle: carboxymethylcellulose (CMC)): 2 of 6
- survivor count (dose: 2.0 mg/kg/injection, schedule: Q01DX010 (ip), vehicle: carboxymethylcellulose (CMC)): 0 of 6

SMILES: COc1cc(OC)c(NC(=S)Nc2cc(C)ccc2OC)cc1Cl
- T/C (dose: 50.0 mg/kg/injection, schedule: Q01DX009 (ip), vehicle: DMSO): 129 % of control

SMILES: COc1ccc(/C=C/C(=O)c2ccc(Cl)cc2)c(OC)c1
- survivor count [4]: 6 of 6

SMILES: O=c1[nH]nc(-c2ccccc2)nc1/C(=N\Nc1ccccc1)c1ccccc1
- survivor count [3]: 6 of 6
- survivor count [4]: 6 of 6
- survivor count [5]: 5 of 6

SMILES: CCN(CC)CCCC(C)Nc1c2ccc(C)cc2nc2ccc(OC)cc12 (stereo unspecified)
- survivor count [4]: 4 of 6
- survivor count [5]: 2 of 6

SMILES: Cc1ccc(S(=O)(=O)OCCN(CCOS(=O)(=O)c2ccc(C)cc2)c2ccc(F)cc2)cc1
- T/C (dose: 100.0 mg/kg/injection, schedule: Q04DX003 (ip), vehicle: other): 136 % of control
- T/C (dose: 150.0 mg/kg/injection, schedule: Q01DX009 (ip), vehicle: other): 136 % of control
- survivor count (dose: 400.0 mg/kg/injection, schedule: Q01DX009 (ip), vehicle: other): 4 of 6
